Test results as given in paper PMC6106897, “Biocatalytic synthesis of acylated derivatives of troxerutin: their bioavailability and antioxidant properties in vitro” (Microbial Cell Factories, 2018).

Assay: Transport experiment in Caco-2 monolayers
Assay type: in vitro ADME
Details: human
Procedure: The absorptions of troxerutin and its acylated derivatives was measured as described by Chen et al.. Caco-2 cells were cultured in DMEM supplemented with 10% FBS, 100 μg/mL streptomycin, and 100 U/mL penicillin at 37 °C in an atmosphere of 5% CO2 and the medium was changed every 2 days. Caco-2 cells used in this study were seeded onto 12-well translucent Transwell inserts (0.4 μm pore size, Corning Costar, Corning, NY, USA) at a density of 2.5 × 10^5 cells/mL and grown for 3 weeks. Transepithelial electrical resistance (TEER) and lucifer yellow were measured to detect the integrity of Caco-2 monolayers. TEER values were measured by using a voltammeter (Millicell ERS, Millipore, Bedford, MA, USA) and the amount of lucifer yellow transported to the basolateral side in a 2.5-h period was quantified by using a fluorospectrometer (Fluoroskan Ascent FL, Thermo Labsystems, Helsinki, Finland) at an excitation wavelength of 425 nm and emission wavelength of 530 nm. ALP activity was measured to detect the differentiation degree of Caco-2 monolayers by using an ALP Assay Kit.
Samples (100 μM, 0.5 mL) were placed on the apical (AP) side along with 1.5 mL of HBSS added to the basolateral (BL) side. […] The volume removed from the recipient side was replaced with fresh HBSS at 30, 60, 90, 120, and 150 min. The concentrations on the BL side were measured by HPLC. […]

NS(=O)(=O)c1cc(C(=O)O)c(NCc2ccco2)cc1Cl [Furosemide, furosemide]
Papp A→B at 150 min, 100 μM: 0.85 ± 0.15 ×10⁻⁶ cm/s | Papp B→A at 150 min, 100 μM: 0.86 ± 0.11 ×10⁻⁶ cm/s
